For assay [1], the target named is T1, DDB1b (UniProt O49552).
T1 sequence: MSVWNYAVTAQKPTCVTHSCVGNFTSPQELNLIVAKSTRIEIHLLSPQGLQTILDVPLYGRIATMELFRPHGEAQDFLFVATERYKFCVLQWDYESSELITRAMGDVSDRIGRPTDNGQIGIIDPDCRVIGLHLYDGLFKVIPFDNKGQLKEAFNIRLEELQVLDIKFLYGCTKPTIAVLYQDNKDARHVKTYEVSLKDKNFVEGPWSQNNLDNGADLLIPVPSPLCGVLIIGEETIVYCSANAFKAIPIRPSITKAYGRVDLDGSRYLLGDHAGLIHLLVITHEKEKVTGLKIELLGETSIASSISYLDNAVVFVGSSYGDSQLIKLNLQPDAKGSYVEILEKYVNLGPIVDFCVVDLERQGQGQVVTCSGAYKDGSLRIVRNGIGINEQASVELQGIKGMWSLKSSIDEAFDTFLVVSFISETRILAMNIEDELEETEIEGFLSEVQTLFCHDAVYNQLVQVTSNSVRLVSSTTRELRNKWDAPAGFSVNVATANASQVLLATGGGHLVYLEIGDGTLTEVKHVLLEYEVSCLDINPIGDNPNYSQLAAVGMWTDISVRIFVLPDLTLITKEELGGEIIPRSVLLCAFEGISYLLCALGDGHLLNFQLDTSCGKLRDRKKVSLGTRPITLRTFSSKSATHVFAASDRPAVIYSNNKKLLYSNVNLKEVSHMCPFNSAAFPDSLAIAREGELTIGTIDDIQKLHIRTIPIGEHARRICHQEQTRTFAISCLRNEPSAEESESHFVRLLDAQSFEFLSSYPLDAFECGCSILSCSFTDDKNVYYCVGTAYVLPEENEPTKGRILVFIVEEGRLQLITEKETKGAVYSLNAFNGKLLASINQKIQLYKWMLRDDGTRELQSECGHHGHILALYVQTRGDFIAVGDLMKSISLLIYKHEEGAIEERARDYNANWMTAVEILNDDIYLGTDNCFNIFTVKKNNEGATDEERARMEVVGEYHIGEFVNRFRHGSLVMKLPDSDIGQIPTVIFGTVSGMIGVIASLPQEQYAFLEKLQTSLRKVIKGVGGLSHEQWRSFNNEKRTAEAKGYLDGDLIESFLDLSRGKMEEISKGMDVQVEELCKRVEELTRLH
Briefly: two-hybrid; yeast two-hybrid assay; bait, prey and conditions not told.

Assay [2] has as its target T2, DDB1a (UniProt Q9M0V3).
T2 sequence: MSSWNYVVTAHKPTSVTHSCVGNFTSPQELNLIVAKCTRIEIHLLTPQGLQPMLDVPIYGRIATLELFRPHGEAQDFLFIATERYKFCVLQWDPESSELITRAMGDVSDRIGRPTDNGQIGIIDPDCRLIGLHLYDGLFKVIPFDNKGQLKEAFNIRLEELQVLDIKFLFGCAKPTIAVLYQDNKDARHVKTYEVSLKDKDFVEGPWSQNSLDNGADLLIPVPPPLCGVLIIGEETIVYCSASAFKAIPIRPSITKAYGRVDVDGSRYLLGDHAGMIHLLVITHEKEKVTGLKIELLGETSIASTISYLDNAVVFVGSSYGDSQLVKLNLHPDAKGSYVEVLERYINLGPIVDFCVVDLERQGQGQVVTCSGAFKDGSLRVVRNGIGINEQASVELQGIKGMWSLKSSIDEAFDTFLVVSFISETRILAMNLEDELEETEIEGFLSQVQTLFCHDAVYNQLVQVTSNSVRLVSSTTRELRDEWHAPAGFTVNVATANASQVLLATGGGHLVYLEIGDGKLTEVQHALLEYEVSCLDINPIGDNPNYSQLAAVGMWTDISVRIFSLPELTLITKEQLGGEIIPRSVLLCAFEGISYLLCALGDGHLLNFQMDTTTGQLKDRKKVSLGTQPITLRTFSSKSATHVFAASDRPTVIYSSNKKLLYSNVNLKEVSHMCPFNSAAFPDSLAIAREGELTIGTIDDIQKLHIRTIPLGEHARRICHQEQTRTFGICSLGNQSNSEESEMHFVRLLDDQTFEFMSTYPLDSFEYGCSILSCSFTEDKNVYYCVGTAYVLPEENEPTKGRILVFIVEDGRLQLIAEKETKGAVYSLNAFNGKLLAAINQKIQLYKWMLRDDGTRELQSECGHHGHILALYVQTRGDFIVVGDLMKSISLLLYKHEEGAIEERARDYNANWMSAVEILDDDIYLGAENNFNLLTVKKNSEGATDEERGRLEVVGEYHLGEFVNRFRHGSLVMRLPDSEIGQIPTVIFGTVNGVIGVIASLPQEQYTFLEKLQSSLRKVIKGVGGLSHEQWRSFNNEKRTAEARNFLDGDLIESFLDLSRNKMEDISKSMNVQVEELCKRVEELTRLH
Described as above.

No constants are given. Whether binding was seen depends on the method and setting.

B1: YAO (full length) (protein, UniProt Q9M0V4 1-504)
chain: MKYNNEKKKGGSFKRGGKKGSNERDPFFEEEPKKRRKVSYDDDDIESVDSDAEENGFTGGDEDGRRVDGEVEDEDEFADETAGEKRKRLAEEMLNRRREAMRREREEADNDDDDDEDDDETIKKSLMQKQQEDSGRIRRLIASRVQEPLSTDGFSVIVKHRRSVVSVALSDDDSRGFSASKDGTIMHWDVSSGKTDKYIWPSDEILKSHGMKLREPRNKNHSRESLALAVSSDGRYLATGGVDRHVHIWDVRTREHVQAFPGHRNTVSCLCFRYGTSELYSGSFDRTVKVWNVEDKAFITENHGHQGEILAIDALRKERALTVGRDRTMLYHKVPESTRMIYRAPASSLESCCFISDNEYLSGSDNGTVALWGMLKKKPVFVFKNAHQDIPDGITTNGILENGDHEPVNNNCSANSWVNAVATSRGSDLAASGAGNGFVRLWAVETNAIRPLYELPLTGFVNSLAFAKSGKFLIAGVGQETRFGRWGCLKSAQNGVAIHPLRLA
With B1, the binding entry in assay [1] and in assay [2] was “no binding” each time.

The values above are taken from article PMC3095302.
